Values from PubChem BioAssay AID1508597 (Cure First, 2020)
This is a random part of the about 2,100 reagents, in one setting of the screen. 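Calls flag viability under 80% in either arm, not effects specific to rucaparib; the reference for percent is not stated.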 Reagents against one gene are numbered here. Reagent sequences are not shown. The record does not give: the 100% reference.

Assay: 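Genes whose silencing sensitises or protects ovarian cancer cells against rucaparib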 (primary screen)
Cell system: human ovarian carcinoma lines grown from tumours: OCI-P5x (papillary serous) and OCI-C5x (clear cell)
Reagent: siRNA pool against human genes, 1.25 pmol siRNA per well
Timing: 72 h or 96 h, depending on the cell culture
Conditions: rucaparib 20 µM (about IC30) or vehicle, present until read-out
Rucaparib or vehicle: Vehicle
Cell line: OCI-P5x (serous)
Measured: 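Luminescent ATP-based viability assay read 72 or 96 h after transfection, depending on culture, given as normalised percent viability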
Direction: viability, normalised: higher = more viable cells remaining
Active means: 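a well counts as a hit if its normalised viability is under 80 percent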
Calls: active = viability under 80%; inactive = viability 80% or more

Gene,pool no.,technical replicate,"viability, normalised (%)",call
PRDM1 (PR/SET domain 1),1,1,61.7,active
PRDM1 (PR/SET domain 1),1,2,63.2,active
PRDM1 (PR/SET domain 1),1,3,69,active
MED27 (mediator complex subunit 27),1,1,53.2,active
MED27 (mediator complex subunit 27),1,2,60.8,active
MED27 (mediator complex subunit 27),1,3,68.6,active
CLOCK (clock circadian regulator),1,1,58.1,active
CLOCK (clock circadian regulator),1,2,70,active
CLOCK (clock circadian regulator),1,3,65,active

A stretch taken from the entries so far, for reference:
Gene,pool no.,technical replicate,"viability, normalised (%)",call
MED27 (mediator complex subunit 27),1,1,53.2,active
MED27 (mediator complex subunit 27),1,2,60.8,active
MED27 (mediator complex subunit 27),1,3,68.6,active

The listing continues:
Gene,pool no.,technical replicate,"viability, normalised (%)",call
NME9 (NME/NM23 family member 9),1,1,69.6,active
NME9 (NME/NM23 family member 9),1,2,96.5,inactive
NME9 (NME/NM23 family member 9),1,3,56.1,active
NME9 (NME/NM23 family member 9),2,1,96.4,inactive
NME9 (NME/NM23 family member 9),2,2,78.5,active
NME9 (NME/NM23 family member 9),2,3,74.1,active
TNIK (TRAF2 and NCK interacting kinase),1,1,79.6,active
TNIK (TRAF2 and NCK interacting kinase),1,2,73.4,active
TNIK (TRAF2 and NCK interacting kinase),1,3,73.4,active
CAMK4 (calcium/calmodulin dependent protein kinase IV),1,1,105,inactive
CAMK4 (calcium/calmodulin dependent protein kinase IV),1,2,86.1,inactive
CAMK4 (calcium/calmodulin dependent protein kinase IV),1,3,98.6,inactive
MYOCD (myocardin),1,1,39,active
MYOCD (myocardin),1,2,44.7,active
MYOCD (myocardin),1,3,41.7,active
